# Laboratory results published in the supplement of paper PMC8728848.
# The other results are listed elsewhere or left out.
# B1: EULS2 M1 (Oryza sativa) (protein)
# chain: MVYCRANPNYAMTARNGAVVLAPANPKDEYQHWIKDMRWSTSIKDEEGYPAFALVNKATGQAIKHSLGQSHPVRLVPYNPEVMDESVLWTESRDVGNGFRCIRMVNNIYLNFDAFHGDKYHGGVRDGTDIVLWKLCEGDNQRWKIQPYYILEQKLISEEDLNSAVDHHHHHH
# Columns and labels:
# Assay in all cases: glycan array binding signal (z-score within array); higher = stronger binding
# Details in all cases: glycan notation: IUPAC condensed, linker removed
# [1] = molecular target: Man(a1-2)Man(a1-3)[Man(a1-2)Man(a1-6)]Man(a1-6)[Man(a1-2)Man(a1-2)Man(a1-3)]Man
# Outline: (§1)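 Arrays were curated from the Consortium for Functional Glycomics database, 3228 in total, and kept only where the protein sequence was available. Binding is expressed as a within-array Z-score. This score was averaged across arrays of the same protein sequence at different concentrations or buffers and across linkers, and negative values can be read as non-binding.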
# [2] = molecular target: Man(a1-2)Man(a1-3)[Man(a1-2)Man(a1-6)]Man(a1-6)[Man(a1-2)Man(a1-2)Man(a1-3)]Man(b1-4)GlcNAc(b1-4)GlcNAc
# Outline: as §1
# [3] = molecular target: Man(a1-2)Man(a1-3)[Man(a1-6)]Man(a1-6)[Man(a1-2)Man(a1-3)]Man(b1-4)GlcNAc(b1-4)GlcNAc
# Outline: as §1
# [4] = molecular target: Man(a1-2)Man(a1-6)[Man(a1-3)]Man(a1-6)[Man(a1-2)Man(a1-2)Man(a1-3)]Man
# Outline: as §1
# [5] = molecular target: Man(a1-2)Man(a1-6)[Man(a1-3)]Man(a1-6)[Man(a1-2)Man(a1-2)Man(a1-3)]Man(b1-4)GlcNAc(b1-4)GlcNAc
# Outline: as §1
# [6] = molecular target: Man(a1-3)[Man(a1-6)]Man
# Outline: as §1
# [7] = molecular target: Man(a1-3)[Man(a1-6)]Man(a1-6)[Man(a1-2)Man(a1-3)]Man(b1-4)GlcNAc(b1-4)GlcNAc
# Outline: as §1
# [8] = molecular target: Man(a1-3)[Man(a1-6)]Man(a1-6)[Man(a1-3)]Man
# Outline: as §1
# [9] = molecular target: Man(a1-3)[Man(a1-6)]Man(a1-6)[Man(a1-3)]Man(b1-4)GlcNAc(b1-4)GlcNAc
# Outline: as §1
# [10] = molecular target: Man(a1-3)[Man(a1-6)]Man(b1-4)GlcNAc(b1-4)GlcNAc
# Outline: as §1
# [11] = molecular target: Man(a1-3)[Man(a1-6)]Man(b1-4)GlcNAc(b1-4)[Fuc(a1-6)]GlcNAc
# Outline: as §1
# [12] = molecular target: Man(a1-6)Man
# Outline: as §1
# [13] = molecular target: Man(b1-4)GlcNAc
# Outline: as §1
# [14] = molecular target: MurNAc(b1-4)GlcNAc
# Outline: as §1
# [15] = molecular target: Neu5Ac(a2-3)Gal
# Outline: as §1
# [16] = molecular target: Neu5Ac(a2-3)Gal(b1-3)GalNAc
# Outline: as §1
# [17] = molecular target: Neu5Ac(a2-3)Gal(b1-3)GalNAc(b1-3)Gal(a1-4)Gal(b1-4)Glc
# Outline: as §1
# [18] = molecular target: Neu5Ac(a2-3)Gal(b1-3)GalNAc(b1-4)[Neu5Ac(a2-3)]Gal(b1-4)Glc
# Outline: as §1
# [19] = molecular target: Neu5Ac(a2-3)Gal(b1-3)GalNAc(b1-4)[Neu5Ac(a2-8)Neu5Ac(a2-3)]Gal(b1-4)Glc
# Outline: as §1
# [20] = molecular target: Neu5Ac(a2-3)Gal(b1-3)GalNAc6S
# Outline: as §1
# [21] = molecular target: Neu5Ac(a2-3)Gal(b1-3)GlcNAc
# Outline: as §1
# [22] = molecular target: Neu5Ac(a2-3)Gal(b1-3)GlcNAc(b1-2)Man
# Outline: as §1
# [23] = molecular target: Neu5Ac(a2-3)Gal(b1-3)GlcNAc(b1-2)Man(a1-3)[GlcNAc(b1-4)][Neu5Ac(a2-3)Gal(b1-3)GlcNAc(b1-2)Man(a1-6)]Man(b1-4)GlcNAc(b1-4)GlcNAc
# Outline: as §1
# [24] = molecular target: Neu5Ac(a2-3)Gal(b1-3)GlcNAc(b1-2)Man(a1-3)[Neu5Ac(a2-3)Gal(b1-3)GlcNAc(b1-2)Man(a1-6)]Man(b1-4)GlcNAc(b1-4)GlcNAc
# Outline: as §1
# [25] = molecular target: Neu5Ac(a2-3)Gal(b1-3)GlcNAc(b1-3)Gal(b1-3)GlcNAc
# Outline: as §1
# [26] = molecular target: Neu5Ac(a2-3)Gal(b1-3)GlcNAc(b1-3)Gal(b1-4)GlcNAc
# Outline: as §1
# [27] = molecular target: Neu5Ac(a2-3)Gal(b1-3)GlcNAc(b1-3)GalNAc
# Outline: as §1
# [28] = molecular target: Neu5Ac(a2-3)Gal(b1-3)GlcNAc(b1-4)Gal(b1-4)Glc
# Outline: as §1
# [29] = molecular target: Neu5Ac(a2-3)Gal(b1-3)GlcNAc(b1-6)GalNAc
# Outline: as §1
# [30] = molecular target: Neu5Ac(a2-3)Gal(b1-3)GlcNAc6S
# Outline: as §1
# [31] = molecular target: Neu5Ac(a2-3)Gal(b1-3)[Fuc(a1-4)]GlcNAc
# Outline: as §1
# [32] = molecular target: Neu5Ac(a2-3)Gal(b1-3)[Fuc(a1-4)]GlcNAc(b1-3)Gal(b1-3)[Fuc(a1-4)]GlcNAc
# Outline: as §1
# [33] = molecular target: Neu5Ac(a2-3)Gal(b1-3)[Fuc(a1-4)]GlcNAc(b1-3)Gal(b1-4)[Fuc(a1-3)]GlcNAc
# Outline: as §1
# [34] = molecular target: Neu5Ac(a2-3)Gal(b1-3)[GlcNAc(b1-6)]GalNAc
# Outline: as §1
# [35] = molecular target: Neu5Ac(a2-3)Gal(b1-3)[Neu5Ac(a2-6)]GalNAc
# Outline: as §1
# [36] = molecular target: Neu5Ac(a2-3)Gal(b1-3)[Neu5Ac(a2-6)]GlcNAc(b1-3)[Fuc(a1-3)[Gal(b1-4)]GlcNAc(b1-6)]Gal(b1-4)Glc
# Outline: as §1
# [37] = molecular target: Neu5Ac(a2-3)Gal(b1-3)]Neu5Ac(a2-3)Gal(b1-4)]GlcNAc
# Outline: as §1
# [38] = molecular target: Neu5Ac(a2-3)Gal(b1-4)Glc
# Outline: as §1
binder,measurement,setting,value
B1,glycan array binding signal (z-score),[1],-0.01
same,glycan array binding signal (z-score),[2],-0.176
same,glycan array binding signal (z-score),[3],0.455
same,glycan array binding signal (z-score),[4],0.159
same,glycan array binding signal (z-score),[5],0.721
same,glycan array binding signal (z-score),[6],-0.324
same,glycan array binding signal (z-score),[7],0.337
same,glycan array binding signal (z-score),[8],1.59
same,glycan array binding signal (z-score),[9],0.327
same,glycan array binding signal (z-score),[10],3.41
same,glycan array binding signal (z-score),[11],0.377
same,glycan array binding signal (z-score),[12],3.16
same,glycan array binding signal (z-score),[13],-0.283
same,glycan array binding signal (z-score),[14],-0.581
same,glycan array binding signal (z-score),[15],-1.24
same,glycan array binding signal (z-score),[16],-0.371
same,glycan array binding signal (z-score),[17],-0.132
same,glycan array binding signal (z-score),[18],0.474
same,glycan array binding signal (z-score),[19],-0.657
same,glycan array binding signal (z-score),[20],1.3
same,glycan array binding signal (z-score),[21],-0.972
same,glycan array binding signal (z-score),[22],0.098
same,glycan array binding signal (z-score),[23],-0.389
same,glycan array binding signal (z-score),[24],0.791
same,glycan array binding signal (z-score),[25],-1.01
same,glycan array binding signal (z-score),[26],-0.217
same,glycan array binding signal (z-score),[27],-0.164
same,glycan array binding signal (z-score),[28],0.491
same,glycan array binding signal (z-score),[29],0.348
same,glycan array binding signal (z-score),[30],-0.239
same,glycan array binding signal (z-score),[31],-0.739
same,glycan array binding signal (z-score),[32],-0.673
same,glycan array binding signal (z-score),[33],1.75
same,glycan array binding signal (z-score),[34],-1.12
same,glycan array binding signal (z-score),[35],0.067
same,glycan array binding signal (z-score),[36],-0.53
same,glycan array binding signal (z-score),[37],-0.6
same,glycan array binding signal (z-score),[38],-0.186

# Laid out differently: entries from further up
binder | measurement | setting | value
B1 | glycan array binding signal (z-score) | [2] | -0.176
same | glycan array binding signal (z-score) | [3] | 0.455
same | glycan array binding signal (z-score) | [10] | 3.41
same | glycan array binding signal (z-score) | [12] | 3.16
same | glycan array binding signal (z-score) | [14] | -0.581
same | glycan array binding signal (z-score) | [16] | -0.371
same | glycan array binding signal (z-score) | [19] | -0.657
same | glycan array binding signal (z-score) | [32] | -0.673
